{"sequences": {"note": "Chains of the proteins cited; added tags and fusions are not shown.", "UniProt P00811, whole entry": "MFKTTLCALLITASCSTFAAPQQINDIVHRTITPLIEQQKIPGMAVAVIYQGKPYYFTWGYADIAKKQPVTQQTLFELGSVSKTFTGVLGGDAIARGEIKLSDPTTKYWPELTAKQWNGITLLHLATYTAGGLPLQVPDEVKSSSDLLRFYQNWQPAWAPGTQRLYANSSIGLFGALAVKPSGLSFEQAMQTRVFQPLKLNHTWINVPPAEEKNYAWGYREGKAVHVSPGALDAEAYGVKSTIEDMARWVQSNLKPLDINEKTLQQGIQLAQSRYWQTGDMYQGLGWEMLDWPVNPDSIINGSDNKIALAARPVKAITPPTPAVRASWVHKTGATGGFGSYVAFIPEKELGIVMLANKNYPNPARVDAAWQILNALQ"}, "source": "PubChem BioAssay AID485294", "about": "(National Center for Advancing Translational Sciences (NCATS), 2010)", "note": "Among all 370,000 compounds or so, about 150 (0.041%) were called active. The source calls these results inconclusive, neither active nor inactive. Calls come from the whole dose curve; as a rule, active = well fitted inhibition curve with a large enough effect; inconclusive = small, poorly fitted or top-dose-only effect; inactive = flat fitted curve, though single readings scatter."}
{"target": "Beta-lactamase (Escherichia coli (strain K12)) (UniProt P00811)", "assay": "qHTS Inhibitors of AmpC Beta-Lactamase (assay with detergent); note: potency is the fitted concentration of half-maximal effect; nearly all actives have a fitted effect of over 25% in size", "settings": "AmpC hydrolysis of nitrocefin, absorbance 480 nm, 0.01% Triton"}
{"compound": "CP(=O)(Oc1ccccc1)OC(c1ccccc1)C(F)(F)F", "note": "(configuration not stated)", "Potency": "inconclusive: 20 µM"}
{"compound": "Cc1cc(C)cc(OP(C)(N)=O)c1", "note": "(configuration not stated)", "Potency": "inconclusive: 70.8 µM"}
{"compound": "CCCOc1ccc(NP(C)(=O)Oc2ccc(Cl)cc2)cc1", "note": "(configuration not stated)", "Potency": "inconclusive: 10 µM"}
{"compound": "CC1=C2N=C(C=C3N=C(C(C)=C4[N-][C@@](C)([C@@H]5N=C1[C@](C)(CCC(=O)NC[C@@H](C)OP(=O)([O-])O[C@H]1[C@@H](O)[C@@H](n6cnc7cc(C)c(C)cc76)O[C@@H]1CO)[C@H]5CC(N)=O)[C@@](C)(CC(N)=O)[C@@H]4CCC(N)=O)[C@@](C)(CC(N)=O)[C@@H]3CCC(N)=O)C(C)(C)[C@@H]2CCC(N)=O.[C-]#N.[Co+3]", "Potency": "inconclusive: 50.1 µM"}
{"compound": "Cc1nc2ccc3ccccc3c2s1.O=[N+]([O-])c1cc([N+](=O)[O-])c(O)c([N+](=O)[O-])c1", "Potency": "inconclusive: 100 µM"}
{"compound": "O=[N+]([O-])c1ccc(OP2(=O)COCCO2)cc1", "note": "(configuration not stated)", "Potency": "inconclusive: 1 µM"}
{"compound": "O=C(OCCN1CCN(CCOCc2ccccc2)CC1)C(O)(c1ccccc1)c1ccccc1", "Potency": "inconclusive: 0.891 µM"}
{"compound": "CP(=O)(Nc1ccccc1F)Oc1ccccc1", "note": "(configuration not stated)", "Potency": "inconclusive: 112 µM"}
{"compound": "COc1ccc(OP(C)(=O)Nc2ccccn2)cc1", "note": "(configuration not stated)", "Potency": "inconclusive: 3.98 µM"}
{"compound": "CP(=O)(Nc1ccc(Cl)cc1Cl)Oc1ccccc1", "note": "(configuration not stated)", "Potency": "inconclusive: 35.5 µM"}
{"compound": "COc1ccc(OP(C)(=O)Nc2ccccc2Br)cc1", "note": "(configuration not stated)", "Potency": "inconclusive: 56.2 µM"}
{"compound": "CCOC(=O)c1ccc(NP(C)(=O)Oc2ccc(Cl)cc2)cc1", "note": "(configuration not stated)", "Potency": "inconclusive: 2.51 µM"}
